From the supplement of paper PMC10849652
The list shows a part of the results.

Amino acid sequences for entries named in this document (tags omitted). A change or cut given only in a name is not applied to a line headed by its entry.
UniProt Q96SZ5, whole entry, looked up: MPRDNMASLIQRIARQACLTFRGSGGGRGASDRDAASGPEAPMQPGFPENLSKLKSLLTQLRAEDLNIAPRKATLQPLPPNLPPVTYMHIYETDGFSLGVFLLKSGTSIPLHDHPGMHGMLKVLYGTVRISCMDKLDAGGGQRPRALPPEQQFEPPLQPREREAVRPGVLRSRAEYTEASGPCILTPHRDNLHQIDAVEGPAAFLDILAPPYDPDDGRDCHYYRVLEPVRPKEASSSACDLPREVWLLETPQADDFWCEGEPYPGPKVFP
UniProt Q02952: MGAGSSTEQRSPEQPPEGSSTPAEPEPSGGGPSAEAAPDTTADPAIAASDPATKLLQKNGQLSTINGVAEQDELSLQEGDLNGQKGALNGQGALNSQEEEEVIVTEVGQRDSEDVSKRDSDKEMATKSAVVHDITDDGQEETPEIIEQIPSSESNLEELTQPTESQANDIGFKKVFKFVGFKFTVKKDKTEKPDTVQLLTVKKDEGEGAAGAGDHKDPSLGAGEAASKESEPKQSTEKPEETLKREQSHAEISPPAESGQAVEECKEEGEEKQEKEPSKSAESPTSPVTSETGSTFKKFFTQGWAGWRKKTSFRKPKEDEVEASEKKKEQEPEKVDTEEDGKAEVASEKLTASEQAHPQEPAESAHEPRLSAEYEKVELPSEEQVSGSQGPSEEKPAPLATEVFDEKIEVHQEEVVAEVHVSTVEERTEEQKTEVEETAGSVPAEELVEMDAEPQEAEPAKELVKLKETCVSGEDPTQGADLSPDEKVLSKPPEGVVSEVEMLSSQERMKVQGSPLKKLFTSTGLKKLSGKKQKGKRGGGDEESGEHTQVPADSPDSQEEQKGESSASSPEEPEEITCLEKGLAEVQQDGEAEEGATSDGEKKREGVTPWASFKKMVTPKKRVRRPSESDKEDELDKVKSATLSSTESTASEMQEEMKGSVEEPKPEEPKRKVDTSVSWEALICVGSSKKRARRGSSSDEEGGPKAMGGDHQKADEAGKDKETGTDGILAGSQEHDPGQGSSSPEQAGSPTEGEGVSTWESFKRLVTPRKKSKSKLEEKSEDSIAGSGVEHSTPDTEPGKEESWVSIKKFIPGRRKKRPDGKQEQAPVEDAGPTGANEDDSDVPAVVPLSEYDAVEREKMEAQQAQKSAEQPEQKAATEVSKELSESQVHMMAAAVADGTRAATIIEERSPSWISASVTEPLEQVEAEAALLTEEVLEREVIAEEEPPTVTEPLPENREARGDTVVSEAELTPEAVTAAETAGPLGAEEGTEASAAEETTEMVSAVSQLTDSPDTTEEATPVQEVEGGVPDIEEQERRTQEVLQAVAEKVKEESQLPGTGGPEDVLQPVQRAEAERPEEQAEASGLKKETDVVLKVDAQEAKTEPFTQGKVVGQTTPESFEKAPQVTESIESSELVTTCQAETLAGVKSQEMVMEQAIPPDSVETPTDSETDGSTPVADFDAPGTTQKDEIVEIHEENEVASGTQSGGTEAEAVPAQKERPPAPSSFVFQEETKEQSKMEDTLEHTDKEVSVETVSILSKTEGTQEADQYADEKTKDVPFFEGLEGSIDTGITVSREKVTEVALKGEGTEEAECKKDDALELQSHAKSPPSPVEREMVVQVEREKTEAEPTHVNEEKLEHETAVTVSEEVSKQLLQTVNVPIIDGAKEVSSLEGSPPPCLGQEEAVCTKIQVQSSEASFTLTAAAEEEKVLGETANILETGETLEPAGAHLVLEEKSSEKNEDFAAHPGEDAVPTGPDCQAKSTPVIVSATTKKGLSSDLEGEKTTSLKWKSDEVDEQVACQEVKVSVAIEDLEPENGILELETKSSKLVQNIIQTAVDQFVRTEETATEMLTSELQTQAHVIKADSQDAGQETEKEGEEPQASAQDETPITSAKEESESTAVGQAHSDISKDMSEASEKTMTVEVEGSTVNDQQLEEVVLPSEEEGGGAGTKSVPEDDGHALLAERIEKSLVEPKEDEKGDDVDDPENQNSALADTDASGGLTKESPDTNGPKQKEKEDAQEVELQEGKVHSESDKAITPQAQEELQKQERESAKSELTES
UniProt Q96P47: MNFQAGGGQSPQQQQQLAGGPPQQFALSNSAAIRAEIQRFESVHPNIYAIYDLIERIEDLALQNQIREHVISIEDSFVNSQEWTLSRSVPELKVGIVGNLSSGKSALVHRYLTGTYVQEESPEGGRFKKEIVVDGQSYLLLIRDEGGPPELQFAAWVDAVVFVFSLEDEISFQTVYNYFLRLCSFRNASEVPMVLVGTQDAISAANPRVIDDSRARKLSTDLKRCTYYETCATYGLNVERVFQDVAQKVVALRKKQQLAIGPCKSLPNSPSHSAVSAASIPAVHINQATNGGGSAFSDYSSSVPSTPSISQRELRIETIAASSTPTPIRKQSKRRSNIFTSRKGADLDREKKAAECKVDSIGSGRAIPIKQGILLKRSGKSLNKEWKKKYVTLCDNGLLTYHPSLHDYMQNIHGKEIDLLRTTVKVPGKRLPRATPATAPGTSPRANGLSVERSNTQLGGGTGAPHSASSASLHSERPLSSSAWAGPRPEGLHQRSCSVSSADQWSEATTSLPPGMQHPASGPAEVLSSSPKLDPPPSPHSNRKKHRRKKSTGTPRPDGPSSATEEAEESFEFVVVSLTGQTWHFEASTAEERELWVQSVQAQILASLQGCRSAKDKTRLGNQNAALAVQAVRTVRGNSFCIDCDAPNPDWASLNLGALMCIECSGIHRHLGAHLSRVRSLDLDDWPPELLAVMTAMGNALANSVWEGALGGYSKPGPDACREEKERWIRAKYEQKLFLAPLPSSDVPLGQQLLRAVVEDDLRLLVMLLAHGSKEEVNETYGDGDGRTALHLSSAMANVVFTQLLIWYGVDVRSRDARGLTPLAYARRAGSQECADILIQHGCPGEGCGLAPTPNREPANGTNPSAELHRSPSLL
UniProt O43865, whole entry, looked up: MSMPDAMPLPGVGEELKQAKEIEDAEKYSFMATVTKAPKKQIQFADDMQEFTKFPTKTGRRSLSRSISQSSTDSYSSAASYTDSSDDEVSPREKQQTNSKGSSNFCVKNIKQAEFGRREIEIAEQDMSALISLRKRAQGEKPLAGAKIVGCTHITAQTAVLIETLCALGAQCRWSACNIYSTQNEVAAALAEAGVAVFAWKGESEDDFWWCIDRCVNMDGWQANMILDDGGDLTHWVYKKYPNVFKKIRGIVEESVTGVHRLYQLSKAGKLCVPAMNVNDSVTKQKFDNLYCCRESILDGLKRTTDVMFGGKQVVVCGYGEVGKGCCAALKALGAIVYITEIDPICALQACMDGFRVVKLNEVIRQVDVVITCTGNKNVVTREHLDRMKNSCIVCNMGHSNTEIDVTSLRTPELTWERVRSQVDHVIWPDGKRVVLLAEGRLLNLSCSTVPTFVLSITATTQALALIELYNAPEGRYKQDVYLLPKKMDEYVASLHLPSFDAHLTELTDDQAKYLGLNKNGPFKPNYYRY
UniProt P31749: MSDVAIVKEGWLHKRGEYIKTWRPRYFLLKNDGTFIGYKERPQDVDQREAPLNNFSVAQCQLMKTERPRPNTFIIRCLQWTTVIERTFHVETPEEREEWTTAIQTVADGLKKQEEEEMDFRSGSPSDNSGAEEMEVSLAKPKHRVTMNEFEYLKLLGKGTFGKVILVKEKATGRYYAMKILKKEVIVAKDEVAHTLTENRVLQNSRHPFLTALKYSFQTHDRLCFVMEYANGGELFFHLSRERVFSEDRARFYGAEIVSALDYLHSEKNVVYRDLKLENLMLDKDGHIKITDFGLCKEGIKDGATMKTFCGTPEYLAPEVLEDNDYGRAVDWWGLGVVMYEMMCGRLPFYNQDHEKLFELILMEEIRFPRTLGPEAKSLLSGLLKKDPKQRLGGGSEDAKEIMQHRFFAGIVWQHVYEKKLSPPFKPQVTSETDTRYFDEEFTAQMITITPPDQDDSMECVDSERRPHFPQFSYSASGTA
UniProt P30566: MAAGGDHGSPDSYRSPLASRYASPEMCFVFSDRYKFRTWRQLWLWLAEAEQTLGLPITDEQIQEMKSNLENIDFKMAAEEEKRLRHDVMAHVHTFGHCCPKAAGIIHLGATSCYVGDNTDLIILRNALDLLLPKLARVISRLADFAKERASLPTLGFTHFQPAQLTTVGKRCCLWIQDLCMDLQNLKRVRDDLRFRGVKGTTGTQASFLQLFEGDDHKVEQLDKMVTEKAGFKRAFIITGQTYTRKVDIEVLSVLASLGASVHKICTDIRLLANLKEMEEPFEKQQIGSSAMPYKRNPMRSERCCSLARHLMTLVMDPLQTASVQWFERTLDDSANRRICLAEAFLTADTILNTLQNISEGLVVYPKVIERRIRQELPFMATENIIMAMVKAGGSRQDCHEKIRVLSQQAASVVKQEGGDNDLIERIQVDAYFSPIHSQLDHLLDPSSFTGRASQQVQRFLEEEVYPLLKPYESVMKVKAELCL
UniProt P14550: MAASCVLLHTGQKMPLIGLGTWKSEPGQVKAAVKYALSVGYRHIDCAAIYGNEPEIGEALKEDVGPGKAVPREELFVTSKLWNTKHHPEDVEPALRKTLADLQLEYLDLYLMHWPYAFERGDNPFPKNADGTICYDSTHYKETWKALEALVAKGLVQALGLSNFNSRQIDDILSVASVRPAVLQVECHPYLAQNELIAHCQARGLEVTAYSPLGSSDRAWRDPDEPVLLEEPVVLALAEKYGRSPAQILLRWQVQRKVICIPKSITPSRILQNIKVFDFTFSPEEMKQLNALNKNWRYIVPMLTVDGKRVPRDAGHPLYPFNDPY
UniProt Q5I7T1: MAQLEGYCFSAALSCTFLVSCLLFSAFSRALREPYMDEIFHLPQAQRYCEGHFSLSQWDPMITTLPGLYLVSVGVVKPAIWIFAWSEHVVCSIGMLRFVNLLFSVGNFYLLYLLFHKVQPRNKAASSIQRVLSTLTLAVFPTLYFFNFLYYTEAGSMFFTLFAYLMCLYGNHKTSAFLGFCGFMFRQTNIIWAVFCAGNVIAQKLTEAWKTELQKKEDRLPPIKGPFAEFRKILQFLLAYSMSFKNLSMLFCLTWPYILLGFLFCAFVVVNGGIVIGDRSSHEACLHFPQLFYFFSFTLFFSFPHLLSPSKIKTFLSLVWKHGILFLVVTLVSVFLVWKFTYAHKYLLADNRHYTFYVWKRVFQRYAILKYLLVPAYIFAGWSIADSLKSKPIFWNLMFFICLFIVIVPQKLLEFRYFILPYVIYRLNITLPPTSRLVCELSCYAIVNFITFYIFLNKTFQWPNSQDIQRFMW
UniProt Q9NP73: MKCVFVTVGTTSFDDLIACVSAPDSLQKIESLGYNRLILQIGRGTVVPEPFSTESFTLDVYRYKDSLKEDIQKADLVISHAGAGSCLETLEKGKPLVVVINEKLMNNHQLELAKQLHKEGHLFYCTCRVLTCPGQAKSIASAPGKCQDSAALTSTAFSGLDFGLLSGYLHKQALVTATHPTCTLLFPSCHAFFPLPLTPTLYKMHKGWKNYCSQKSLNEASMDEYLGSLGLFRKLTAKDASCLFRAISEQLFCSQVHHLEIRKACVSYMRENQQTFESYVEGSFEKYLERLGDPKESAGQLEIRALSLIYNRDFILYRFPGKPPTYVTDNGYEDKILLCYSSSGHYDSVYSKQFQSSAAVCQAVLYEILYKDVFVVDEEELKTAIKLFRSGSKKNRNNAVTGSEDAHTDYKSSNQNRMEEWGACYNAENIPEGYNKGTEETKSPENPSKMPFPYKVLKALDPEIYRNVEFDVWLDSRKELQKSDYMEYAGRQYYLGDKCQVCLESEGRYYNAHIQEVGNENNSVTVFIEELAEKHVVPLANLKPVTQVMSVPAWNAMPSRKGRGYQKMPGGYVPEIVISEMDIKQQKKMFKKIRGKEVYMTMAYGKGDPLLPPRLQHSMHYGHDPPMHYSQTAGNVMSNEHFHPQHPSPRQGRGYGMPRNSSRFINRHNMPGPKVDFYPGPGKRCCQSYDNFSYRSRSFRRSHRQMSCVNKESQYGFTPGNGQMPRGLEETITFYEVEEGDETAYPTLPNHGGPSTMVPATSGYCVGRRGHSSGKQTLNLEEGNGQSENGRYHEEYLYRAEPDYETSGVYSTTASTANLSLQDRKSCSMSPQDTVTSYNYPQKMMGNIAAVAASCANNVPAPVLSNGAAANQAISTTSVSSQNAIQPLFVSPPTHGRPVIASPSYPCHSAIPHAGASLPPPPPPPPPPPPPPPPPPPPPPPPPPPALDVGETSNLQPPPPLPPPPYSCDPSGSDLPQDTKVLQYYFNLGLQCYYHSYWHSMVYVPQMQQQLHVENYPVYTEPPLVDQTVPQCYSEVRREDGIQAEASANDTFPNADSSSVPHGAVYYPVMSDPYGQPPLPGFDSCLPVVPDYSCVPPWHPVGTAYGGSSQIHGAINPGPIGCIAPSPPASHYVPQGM
UniProt P55008: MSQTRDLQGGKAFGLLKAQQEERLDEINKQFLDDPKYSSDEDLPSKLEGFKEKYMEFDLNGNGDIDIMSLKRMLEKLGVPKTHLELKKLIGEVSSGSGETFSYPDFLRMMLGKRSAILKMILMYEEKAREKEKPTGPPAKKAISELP

Experiments:
Experiment in all cases: log2 fold change, soluble protein after heating vs DMSO (PISA); higher = thermal stabilisation; K562 cells, 10 uM, 30 min; active = over 0.2 and 3.5 SD of the protein, either way, in both replicates (recomputed)
erlotinib = compound: C#Cc1cccc(Nc2ncnc3cc(OCCOC)c(OCCOC)cc23)c1 [erlotinib]
Outline: (§1)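 K562 cells (2×10^6 cells/mL) were treated with 10 μM compound for 30 min, and aliquots were heated for 3 min over 48°C-58°C. Pooled aliquots were extracted in PBS with 0.5% NP-40 at 4°C, and the supernatant after 21,000xg for 90 min was measured by TMTpro 16plex LC-MS/MS with channel sums equalised. Reported thermal stability, relative to control samples and from duplicates, is a log2 fold change.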

[1] = compound: C/C(=N\NC(=O)C1=CC(=CC=C1)S(=O)(=O)N2CCOCC2)/C3=C(C=CC(=C3)Cl)O
Outline: as §1

[2] = compound: C1=CC(=C(C=C1Cl)C2=NC3=NC=CN=C3C(=N2)NC4=CC=NC=C4)F
Outline: as §1

[3] = compound: C1=CC(=CC=C1C2=NC3=C(N2)C=C(C=C3)C(=O)N)OC4=CC=C(C=C4)Cl
Outline: as §1

[4] = compound: C1=CC2=C(C=CC(=C2)/C=C\3/C(=O)NC(=NCC4=CC=CS4)S3)N=C1
Outline: as §1

[5] = compound: C1=CC2=NC=CN=C2C=C1/C=C/3\C(=O)NC(=O)S3
Outline: as §1

[6] = compound: C1=CC=C(C=C1)C2=NC(=C(N2)C3=CC=NC=C3)C4=CC(=C(C=C4)Cl)O
Outline: as §1

[7] = compound: C1=CC=C2C(=C1)C3=NNC4=CC=CC(=C43)C2=O
Outline: as §1

[8] = compound: C1CCN(C1)C(=O)NC2=CC=CC(=C2)NC3=NC=C(C(=N3)NCCC4=CN=CN4)Br
Outline: as §1

[9] = compound: C1CN(CCC1(CC2=CC=C(C=C2)Cl)N)C3=NC=NC4=C3C=CN4
Outline: as §1

Target	log2 fold change (erlotinib)	log2 fold change [1]	log2 fold change [2]	log2 fold change [3]	log2 fold change [4]	log2 fold change [5]	log2 fold change [6]	log2 fold change [7]	log2 fold change [8]	log2 fold change [9]
ADK (UniProt P55263)	inactive: 0.293	inactive: -0.034	inactive: 0.06	inactive: -0.062	inactive: 0.079	inactive: 0.005	inactive: 0.035	inactive: 0.042	inactive: -0.032	inactive: 0.085
ALG2 (UniProt Q9H553)	inactive: 0.004	inactive: 0.108	inactive: -0.011	inactive: -0.029	inactive: 0.054	inactive: -0.015	inactive: -0.009	inactive: 0.026	inactive: 0.009	inactive: 0.011
ALDH1L2 (UniProt Q3SY69)	inactive: 0.031	inactive: 0.089	inactive: -0.025	inactive: -0.015	inactive: 0.033	inactive: 0.149	inactive: -0.104	inactive: -0.033	inactive: -0.089	inactive: 0
AFG3L2 (UniProt Q9Y4W6)	inactive: 0.024	inactive: -0.09	inactive: 0.034	inactive: -0.073	inactive: 0	inactive: 0.04	inactive: 0.015	inactive: 0.007	inactive: 0.01	inactive: 0.012
AGO1 (UniProt Q9UL18)	inactive: 0.031	inactive: -0.061	inactive: 0.05	inactive: -0.091	inactive: 0.032	inactive: 0.005	inactive: 0.01	inactive: -0.08	inactive: -0.008	inactive: 0.046
ADO (UniProt Q96SZ5)	inactive: 0.04	inactive: -0.042	inactive: 0.08	inactive: 0.008	inactive: 0.044	inactive: 0.012	inactive: -0.001	inactive: 0.055	inactive: 0.005	inactive: 0.061
AFP (UniProt P02771)	inactive: -0.364	inactive: -0.156	inactive: 0.162	inactive: 0.172	inactive: 0.221	inactive: -0.027	inactive: -0.001	inactive: -0.168	inactive: 0.297	inactive: 0.381
ALDH18A1 (UniProt P54886)	inactive: 0.016	inactive: 0.092	inactive: 0.089	inactive: -0.084	inactive: -0.007	inactive: -0.204	inactive: -0.093	inactive: -0.091	inactive: -0.015	inactive: -0.057
AKAP12 (UniProt Q02952)	inactive: 0.042	inactive: 0.051	inactive: 0.059	inactive: -0.047	inactive: 0.07	inactive: -0.124	inactive: -0.122	inactive: 0.108	inactive: -0.057	inactive: 0.046
ALDOA isoform 2 (UniProt P04075)	inactive: -0.009	inactive: 0.004	inactive: 0.031	inactive: -0.002	inactive: -0.061	inactive: -0.012	inactive: 0.008	inactive: 0	inactive: 0.019	inactive: 0.049
AGO4 (UniProt Q9HCK5)	inactive: -0.094	inactive: -0.053	inactive: -0.127	inactive: 0.015	inactive: 0.04	inactive: 0.006	inactive: -0.024	inactive: -0.079	inactive: 0.051	inactive: -0.073
AKAP1 (UniProt Q92667)	inactive: 0.024	inactive: 0.007	inactive: -0.184	inactive: -0.003	inactive: 0.06	inactive: 0.025	inactive: 0.002	inactive: 0.03	inactive: -0.046	inactive: -0.116
AGO2 (UniProt Q9UKV8)	inactive: -0.027	inactive: -0.037	inactive: -0.21	inactive: 0.016	inactive: -0.009	inactive: 0.037	inactive: -0.033	inactive: -0.111	inactive: 0.012	inactive: -0.011
AGAP3 isoform 4 (UniProt Q96P47)	inactive: 0.11	inactive: 0	inactive: -0.078	inactive: -0.062	inactive: 0.017	inactive: 0.183	inactive: -0.024	inactive: -0.082	inactive: -0.075	inactive: 0.127
ALDH6A1 (UniProt Q02252)	inactive: 0.067	inactive: -0.02	inactive: 0.061	inactive: -0.144	inactive: 0.074	inactive: -0.043	inactive: 0.038	inactive: -0.038	inactive: -0.03	inactive: 0.043
ALG3 (UniProt Q92685)	inactive: 0.024	inactive: 0.127	inactive: 0.07	inactive: -0.081	inactive: 0.03	inactive: -0.002	inactive: 0.022	inactive: -0.011	inactive: -0.133	inactive: 0.103
AHCYL1 (UniProt O43865)	inactive: 0.083	inactive: -0.032	inactive: -0.008	inactive: -0.042	inactive: 0.001	inactive: 0.086	inactive: 0.09	inactive: 0.118	inactive: 0.077	inactive: 0.104
AKT1 (UniProt P31749)	inactive: 0.095	inactive: 0.034	inactive: 0.101	inactive: -0.067	inactive: 0	inactive: 0.184	inactive: 0.117	inactive: 0.059	inactive: -0.026	inactive: 0.164
ADSL (UniProt P30566)	inactive: -0.028	inactive: -0.007	inactive: 0.06	inactive: 0.018	inactive: -0.002	inactive: 0.029	inactive: 0.007	inactive: -0.003	inactive: -0.013	inactive: 0.031
ALDH16A1 (UniProt Q8IZ83)	inactive: 0.024	inactive: 0	inactive: 0.011	inactive: 0.027	inactive: 0.025	inactive: -0.018	inactive: -0.02	inactive: -0.002	inactive: -0.008	inactive: 0.021
AGRN (UniProt O00468)	inactive: 0.064	inactive: -0.013	inactive: -0.039	inactive: -0.125	inactive: 0.071	inactive: -0.048	active: 0.366	inactive: 0.024	inactive: -0.091	inactive: 0.05
AKR1A1 (UniProt P14550)	inactive: -0.01	inactive: 0.02	inactive: 0.056	inactive: -0.013	inactive: -0.005	inactive: 0.01	inactive: -0.017	inactive: 0.01	inactive: 0.016	inactive: 0.038
AGTRAP (UniProt Q6RW13)	inactive: 0.024	inactive: -0.065	inactive: -0.074	inactive: 0.048	inactive: 0.013	inactive: 0.083	inactive: -0.059	inactive: -0.021	inactive: -0.007	inactive: 0.03
ALG10B (UniProt Q5I7T1)	inactive: -0.001	inactive: 0.055	inactive: 0.021	inactive: -0.033	inactive: 0.083	inactive: 0.05	inactive: 0.063	inactive: -0.035	inactive: -0.014	inactive: 0.042
ALG13 (UniProt Q9NP73)	inactive: -0.038	inactive: 0.101	inactive: 0.073	inactive: 0.025	inactive: 0.101	inactive: 0.011	inactive: 0.001	inactive: 0.014	inactive: -0.022	inactive: -0.032
AFDN isoform 1 (UniProt P55196)	inactive: -0.008	inactive: 0.072	inactive: 0.002	inactive: -0.003	inactive: -0.136	inactive: -0.018	inactive: -0.082	inactive: -0.005		
AIF1L isoform 2 (UniProt Q9BQI0)	inactive: 0.007	inactive: 0.31	inactive: 0.308	inactive: 0.074	inactive: 0.2	inactive: -0.064	inactive: 0.009	inactive: -0.197		
AHCY (UniProt P23526)	inactive: -0.053	inactive: 0.018	inactive: 0.028	inactive: 0.027	inactive: -0.022	inactive: -0.008	inactive: 0.007	inactive: 0.005	inactive: -0.026	inactive: 0.059
AIF1 (UniProt P55008)	inactive: 0.155	inactive: -0.02	inactive: 0.09	inactive: 0.08	inactive: -0.051	inactive: 0.093	inactive: 0.058	inactive: -0.126		
ADH5 (UniProt P11766)	inactive: -0.012	inactive: 0.034	inactive: 0.05	inactive: -0.016	inactive: 0.001	inactive: 0.007	inactive: -0.039	inactive: 0.002	inactive: 0.004	inactive: 0.037

Part of the list above in another layout:
Target | log2 fold change (erlotinib) | log2 fold change [1] | log2 fold change [2] | log2 fold change [3] | log2 fold change [4] | log2 fold change [5] | log2 fold change [6] | log2 fold change [7] | log2 fold change [8] | log2 fold change [9]
AKT1 (UniProt P31749) | inactive: 0.095 | inactive: 0.034 | inactive: 0.101 | inactive: -0.067 | inactive: 0 | inactive: 0.184 | inactive: 0.117 | inactive: 0.059 | inactive: -0.026 | inactive: 0.164
AKR1A1 (UniProt P14550) | inactive: -0.01 | inactive: 0.02 | inactive: 0.056 | inactive: -0.013 | inactive: -0.005 | inactive: 0.01 | inactive: -0.017 | inactive: 0.01 | inactive: 0.016 | inactive: 0.038
